Test results published in paper PMC5989226 (Nature Communications, 2018).

B1: GAL4AD-AHG1 (enzyme, UniProt Q9FLI3 1-416)
chain: MTEIYRTISTGRGDDVSPTKCRERRRRRIEMRRQAAVFGEPSSSRNRDRTDMEVYSSFDVPLRKQARRSEIGGLPADIGGFLAPPAASSCQKSEAPVWKGEETEDEPLYGIVSVMGRSRKMEDSVTVKPNLCKPEVNRQRPVHFFAVYDGHGGSQVSTLCSTTMHTFVKEELEQNLEEEEEGSENDVVERKWRGVMKRSFKRMDEMATSTCVCGTSVPLCNCDPREAAISGSTAVTAVLTHDHIIVANTGDSRAVLCRNGMAIPLSNDHKPDRPDERARIEAAGGRVLVVDGARVEGILATSRAIGDRYLKPMVAWEPEVTFMRRESGDECLVLASDGLWDVLSSQLACDIARFCLREETPSSLDLNRMAQEDDNDGEQNPSRSVLAATLLTRLALGRQSSDNISVVVIDLKNSSQ
B2: GAL4AD-HAB2 (enzyme, UniProt Q9LNP9 1-511)
chain: MEEISPAVALTLGLANTMCDSGISSTFDISELENVTDAADMLCNQKRQRYSNGVVDCIMGSVSEEKTLSEVRSLSSDFSVTVQESEEDEPLVSDATIISEGLIVVDARSEISLPDTVETDNGRVLATAIILNETTIEQVPTAEVLIASLNHDVNMEVATSEVVIRLPEENPNVARGSRSVYELECIPLWGTISICGGRSEMEDAVRALPHFLKIPIKMLMGDHEGMSPSLPYLTSHFFGVYDGHGGAQVADYCHDRIHSALAEEIERIKEELCRRNTGEGRQVQWEKVFVDCYLKVDDEVKGKINRPVVGSSDRMVLEAVSPETVGSTAVVALVCSSHIIVSNCGDSRAVLLRGKDSMPLSVDHKPDREDEYARIEKAGGKVIQWQGARVSGVLAMSRSIGDQYLEPFVIPDPEVTFMPRAREDECLILASDGLWDVMSNQEACDFARRRILAWHKKNGALPLAERGVGEDQACQAAAEYLSKLAIQMGSKDNISIIVIDLKAQRKFKTRS

What was measured:
Assay in all cases: two-hybrid; Matchmaker Gold, Y2H gold strain; fusions from pASGW-attR and pACTGW-attR (GAL4BD-DOG1 and GAL4AD-PP2Cs in Fig. 4a); growth on QDO/A plates, 7 days
[1] = target: T1, GAL4AD-AHG1 (Arabidopsis) (UniProt Q9FLI3)
T1 sequence: B1 chain

[2] = target: T2, DOG1-Like 3 (DOGL3), yeast two-hybrid fusion (Arabidopsis) (UniProt Q58FV0)
T2 sequence: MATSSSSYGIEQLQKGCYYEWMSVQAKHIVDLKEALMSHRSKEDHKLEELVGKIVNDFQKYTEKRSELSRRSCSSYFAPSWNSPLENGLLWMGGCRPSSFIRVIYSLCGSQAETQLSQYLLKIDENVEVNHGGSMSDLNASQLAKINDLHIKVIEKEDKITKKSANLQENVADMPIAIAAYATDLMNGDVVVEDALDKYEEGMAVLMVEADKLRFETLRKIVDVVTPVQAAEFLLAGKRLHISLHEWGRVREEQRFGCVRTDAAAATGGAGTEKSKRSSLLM

[3] = target: T3, GAL4BD-DOG1 (Arabidopsis) (UniProt A0SVK0)
T3 sequence: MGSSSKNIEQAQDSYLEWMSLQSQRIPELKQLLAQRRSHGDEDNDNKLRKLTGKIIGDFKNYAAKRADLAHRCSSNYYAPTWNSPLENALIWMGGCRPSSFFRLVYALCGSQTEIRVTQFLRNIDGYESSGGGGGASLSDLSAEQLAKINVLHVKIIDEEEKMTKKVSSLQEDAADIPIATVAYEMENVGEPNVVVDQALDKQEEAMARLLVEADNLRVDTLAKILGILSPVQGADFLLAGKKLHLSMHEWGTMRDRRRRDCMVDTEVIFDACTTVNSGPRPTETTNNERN

[4] = target: DOGL5.2, yeast two-hybrid fusion (Arabidopsis)

Molecule	binding [3]	binding [4]	also measured
FVE/MSI4, yeast two-hybrid fusion (Arabidopsis)			binding [1]: binds
GAL4AD-HAB1 (Arabidopsis) (enzyme)	no binding		binding [2]: no binding
GAL4AD-HAI3 (Arabidopsis) (enzyme)	binds		
B1		binds	
B2		no binding	

No constants are given. Whether binding was seen depends on the method and setting. For part of these data: Binding calls can cover weak binding; strength is not graded here. For part of these data: Tags and fused reporters may be left off the sequences shown.
